This is one part of the list.
How the values were obtained:
Experiment in all cases: log2 fold change, soluble protein after heating vs DMSO (PISA); higher = thermal stabilisation; K562 cells, 10 uM, 30 min; active = over 0.2 and 3.5 SD of the protein, either way, in both replicates (recomputed)
[1] = compound: NC(=O)Nc1cc(-c2cccc(F)c2)sc1C(=O)N[C@H]1CCCNC1
Outline: (§1)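 Aliquots of K562 cells (2×10^6 cells/mL) treated with 10 μM compound for 30 min were heated for 3 min over 48°C-58°C. After pooling and extraction in PBS with 0.5% NP-40 at 4°C, soluble protein from a 21,000xg, 90 min spin was quantified by TMTpro 16plex LC-MS/MS with channel sums equalised. Thermal stability is expressed against control samples, from duplicates, as a log2 fold change.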

Protein sequences, listed by entry. Tags and fused reporters are not part of them. Lines headed by an entry give the natural chain unless they say otherwise; changes in a name come on top.
UniProt P23443: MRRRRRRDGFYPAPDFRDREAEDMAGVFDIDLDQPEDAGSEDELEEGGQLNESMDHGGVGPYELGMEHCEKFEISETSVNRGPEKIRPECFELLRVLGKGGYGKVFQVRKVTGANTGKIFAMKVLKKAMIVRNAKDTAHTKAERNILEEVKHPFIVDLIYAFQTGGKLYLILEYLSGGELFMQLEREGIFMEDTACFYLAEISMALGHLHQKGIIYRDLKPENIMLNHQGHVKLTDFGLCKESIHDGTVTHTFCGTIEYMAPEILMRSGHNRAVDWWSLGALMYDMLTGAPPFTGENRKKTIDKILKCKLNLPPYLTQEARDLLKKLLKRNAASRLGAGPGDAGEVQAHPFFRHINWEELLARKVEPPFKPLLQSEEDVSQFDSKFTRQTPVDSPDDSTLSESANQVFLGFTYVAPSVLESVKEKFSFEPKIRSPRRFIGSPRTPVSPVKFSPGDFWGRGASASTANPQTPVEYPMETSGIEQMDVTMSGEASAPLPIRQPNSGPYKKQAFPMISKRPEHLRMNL
UniProt Q7L523, whole entry, looked up: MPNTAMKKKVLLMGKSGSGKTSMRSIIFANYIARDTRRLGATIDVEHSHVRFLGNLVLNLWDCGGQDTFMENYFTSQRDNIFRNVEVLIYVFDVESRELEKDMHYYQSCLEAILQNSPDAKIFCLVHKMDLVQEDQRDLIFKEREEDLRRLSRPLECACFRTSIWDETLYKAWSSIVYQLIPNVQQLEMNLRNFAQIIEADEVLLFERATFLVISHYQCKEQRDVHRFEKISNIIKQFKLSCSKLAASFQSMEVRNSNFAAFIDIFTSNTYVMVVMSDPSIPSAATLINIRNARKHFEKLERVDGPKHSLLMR
UniProt P04843: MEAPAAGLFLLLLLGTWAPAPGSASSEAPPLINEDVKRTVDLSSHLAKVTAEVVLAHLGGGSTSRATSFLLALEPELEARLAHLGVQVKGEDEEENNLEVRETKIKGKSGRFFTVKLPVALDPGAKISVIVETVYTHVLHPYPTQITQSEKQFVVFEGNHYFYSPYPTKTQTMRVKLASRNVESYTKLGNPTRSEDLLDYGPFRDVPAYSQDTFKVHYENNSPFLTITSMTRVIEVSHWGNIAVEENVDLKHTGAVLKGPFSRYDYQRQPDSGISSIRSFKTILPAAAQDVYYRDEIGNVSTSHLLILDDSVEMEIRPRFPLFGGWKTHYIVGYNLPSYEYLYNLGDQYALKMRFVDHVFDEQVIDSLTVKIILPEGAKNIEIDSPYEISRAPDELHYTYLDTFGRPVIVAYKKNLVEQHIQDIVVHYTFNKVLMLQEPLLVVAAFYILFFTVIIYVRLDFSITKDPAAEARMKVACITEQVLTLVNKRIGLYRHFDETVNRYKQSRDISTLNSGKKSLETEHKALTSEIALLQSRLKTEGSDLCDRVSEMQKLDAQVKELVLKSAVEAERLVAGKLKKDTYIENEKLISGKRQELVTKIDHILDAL
UniProt P10155: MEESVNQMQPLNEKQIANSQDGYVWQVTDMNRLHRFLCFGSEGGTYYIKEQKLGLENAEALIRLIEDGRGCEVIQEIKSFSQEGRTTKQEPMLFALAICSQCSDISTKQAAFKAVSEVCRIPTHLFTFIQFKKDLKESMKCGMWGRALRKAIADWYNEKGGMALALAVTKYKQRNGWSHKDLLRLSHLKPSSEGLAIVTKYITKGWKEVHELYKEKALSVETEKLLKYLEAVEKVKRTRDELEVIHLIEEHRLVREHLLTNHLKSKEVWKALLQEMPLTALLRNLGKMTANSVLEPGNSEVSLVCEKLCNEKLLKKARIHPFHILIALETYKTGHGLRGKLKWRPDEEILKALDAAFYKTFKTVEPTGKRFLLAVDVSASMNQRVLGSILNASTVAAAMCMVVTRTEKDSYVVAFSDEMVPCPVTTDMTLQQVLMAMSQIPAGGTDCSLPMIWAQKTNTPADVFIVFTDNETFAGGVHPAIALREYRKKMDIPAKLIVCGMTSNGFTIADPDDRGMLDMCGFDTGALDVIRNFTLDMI
UniProt Q9H633: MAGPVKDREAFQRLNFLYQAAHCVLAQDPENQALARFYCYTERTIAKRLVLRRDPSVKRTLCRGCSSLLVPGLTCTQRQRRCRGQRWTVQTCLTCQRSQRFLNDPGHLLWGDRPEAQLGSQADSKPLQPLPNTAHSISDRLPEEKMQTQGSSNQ
UniProt O75695: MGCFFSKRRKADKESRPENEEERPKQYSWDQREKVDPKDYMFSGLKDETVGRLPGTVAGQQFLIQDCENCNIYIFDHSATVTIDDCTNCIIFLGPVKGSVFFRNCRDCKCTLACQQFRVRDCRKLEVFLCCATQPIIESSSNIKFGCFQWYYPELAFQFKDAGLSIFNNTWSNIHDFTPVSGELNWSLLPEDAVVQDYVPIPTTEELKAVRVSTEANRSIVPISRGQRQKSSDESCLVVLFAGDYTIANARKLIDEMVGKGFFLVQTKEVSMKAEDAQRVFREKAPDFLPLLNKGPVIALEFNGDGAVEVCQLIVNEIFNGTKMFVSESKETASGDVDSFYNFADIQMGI
UniProt P78346: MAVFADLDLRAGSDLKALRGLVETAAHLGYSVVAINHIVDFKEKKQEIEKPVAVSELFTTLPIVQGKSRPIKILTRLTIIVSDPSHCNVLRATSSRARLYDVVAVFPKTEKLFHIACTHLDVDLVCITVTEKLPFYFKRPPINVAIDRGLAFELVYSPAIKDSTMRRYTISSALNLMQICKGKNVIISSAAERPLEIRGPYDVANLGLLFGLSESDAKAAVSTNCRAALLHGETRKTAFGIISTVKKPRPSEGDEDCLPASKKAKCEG
UniProt O60942: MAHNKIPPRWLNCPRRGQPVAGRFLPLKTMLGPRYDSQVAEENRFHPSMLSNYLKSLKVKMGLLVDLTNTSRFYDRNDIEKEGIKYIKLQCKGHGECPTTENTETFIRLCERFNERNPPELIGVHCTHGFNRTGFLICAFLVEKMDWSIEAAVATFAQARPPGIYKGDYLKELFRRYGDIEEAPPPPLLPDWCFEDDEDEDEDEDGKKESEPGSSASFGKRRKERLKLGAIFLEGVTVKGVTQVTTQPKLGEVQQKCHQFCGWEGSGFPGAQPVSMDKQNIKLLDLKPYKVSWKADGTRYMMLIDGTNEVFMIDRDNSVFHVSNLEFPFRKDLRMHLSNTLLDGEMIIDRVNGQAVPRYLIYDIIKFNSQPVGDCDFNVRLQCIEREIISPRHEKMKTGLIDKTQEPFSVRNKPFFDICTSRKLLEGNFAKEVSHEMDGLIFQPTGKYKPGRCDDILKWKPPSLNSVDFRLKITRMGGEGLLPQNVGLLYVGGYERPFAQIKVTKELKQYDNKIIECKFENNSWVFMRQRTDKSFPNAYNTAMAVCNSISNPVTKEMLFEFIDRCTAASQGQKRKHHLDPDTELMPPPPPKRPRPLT
UniProt O95059: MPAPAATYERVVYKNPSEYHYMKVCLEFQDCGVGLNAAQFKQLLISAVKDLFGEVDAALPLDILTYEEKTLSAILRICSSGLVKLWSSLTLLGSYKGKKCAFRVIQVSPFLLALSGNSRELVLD
UniProt Q86WX3: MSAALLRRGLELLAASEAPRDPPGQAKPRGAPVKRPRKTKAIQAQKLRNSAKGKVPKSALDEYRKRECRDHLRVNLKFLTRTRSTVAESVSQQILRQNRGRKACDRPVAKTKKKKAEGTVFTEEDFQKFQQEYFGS
UniProt Q96BH1: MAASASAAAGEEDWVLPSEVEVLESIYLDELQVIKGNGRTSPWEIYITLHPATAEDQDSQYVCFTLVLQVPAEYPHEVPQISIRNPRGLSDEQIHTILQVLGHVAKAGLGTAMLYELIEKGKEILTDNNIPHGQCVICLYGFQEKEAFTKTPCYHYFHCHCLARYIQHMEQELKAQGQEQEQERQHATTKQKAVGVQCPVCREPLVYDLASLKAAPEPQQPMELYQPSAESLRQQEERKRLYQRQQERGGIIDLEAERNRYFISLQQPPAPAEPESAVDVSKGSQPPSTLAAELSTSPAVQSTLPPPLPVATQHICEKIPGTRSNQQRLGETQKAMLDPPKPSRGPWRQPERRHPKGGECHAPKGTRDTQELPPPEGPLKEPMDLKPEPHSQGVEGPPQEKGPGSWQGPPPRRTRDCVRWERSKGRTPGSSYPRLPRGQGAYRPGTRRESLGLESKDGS
UniProt Q15418, whole entry, looked up: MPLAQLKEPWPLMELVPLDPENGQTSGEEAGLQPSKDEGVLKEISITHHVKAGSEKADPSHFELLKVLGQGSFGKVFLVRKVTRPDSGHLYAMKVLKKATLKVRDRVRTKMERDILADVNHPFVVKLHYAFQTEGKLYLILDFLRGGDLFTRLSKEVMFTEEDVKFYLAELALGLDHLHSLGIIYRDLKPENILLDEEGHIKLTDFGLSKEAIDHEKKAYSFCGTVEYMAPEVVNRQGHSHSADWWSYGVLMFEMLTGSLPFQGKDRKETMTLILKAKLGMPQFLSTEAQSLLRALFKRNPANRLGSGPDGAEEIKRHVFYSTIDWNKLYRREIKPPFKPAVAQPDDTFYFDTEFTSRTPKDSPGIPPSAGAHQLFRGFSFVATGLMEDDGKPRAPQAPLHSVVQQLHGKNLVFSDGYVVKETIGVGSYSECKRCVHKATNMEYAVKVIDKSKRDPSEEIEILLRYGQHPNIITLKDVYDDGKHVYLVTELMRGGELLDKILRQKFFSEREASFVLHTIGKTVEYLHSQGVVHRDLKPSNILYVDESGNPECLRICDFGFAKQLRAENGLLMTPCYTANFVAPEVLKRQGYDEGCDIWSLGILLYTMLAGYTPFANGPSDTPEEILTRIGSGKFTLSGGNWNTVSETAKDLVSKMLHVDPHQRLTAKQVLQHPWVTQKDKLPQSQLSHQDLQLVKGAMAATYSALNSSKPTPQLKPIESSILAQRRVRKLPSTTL
UniProt P13489: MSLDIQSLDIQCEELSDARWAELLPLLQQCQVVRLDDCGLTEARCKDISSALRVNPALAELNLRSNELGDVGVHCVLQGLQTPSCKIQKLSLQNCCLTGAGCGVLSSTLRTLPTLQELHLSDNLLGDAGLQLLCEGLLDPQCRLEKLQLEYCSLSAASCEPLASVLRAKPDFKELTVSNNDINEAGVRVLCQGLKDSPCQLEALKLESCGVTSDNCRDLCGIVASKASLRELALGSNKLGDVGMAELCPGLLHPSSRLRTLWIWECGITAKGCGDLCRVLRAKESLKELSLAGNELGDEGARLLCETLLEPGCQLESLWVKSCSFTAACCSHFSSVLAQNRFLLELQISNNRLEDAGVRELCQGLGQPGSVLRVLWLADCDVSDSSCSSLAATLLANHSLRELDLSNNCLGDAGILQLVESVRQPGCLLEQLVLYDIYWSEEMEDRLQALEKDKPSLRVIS

[2] = compound: NC(=O)c1cnc(N[C@@H]2CCCC[C@@H]2N)nc1Nc1cccc(-n2nccn2)c1
Outline: as §1

[3] = compound: NC1(c2ccc(-c3nc4ccn5c(=O)[nH]nc5c4cc3-c3ccccc3)cc2)CCC1
Outline: as §1

[4] = compound: NCC(=O)Nc1ccc(-n2nc(C(F)(F)F)cc2-c2ccc3c(ccc4ccccc43)c2)cc1
Outline: as §1

entinostat = compound: Nc1ccccc1NC(=O)c1ccc(CNC(=O)OCc2cccnc2)cc1 [entinostat]
Outline: as §1

vorinostat = compound: O=C(CCCCCCC(=O)Nc1ccccc1)NO [vorinostat]
Outline: as §1

citarinostat = compound: O=C(CCCCCCNC(=O)c1cnc(N(c2ccccc2)c2ccccc2Cl)nc1)NO [citarinostat]
Outline: as §1

silmitasertib = compound: O=C(O)c1ccc2c(c1)nc(Nc1cccc(Cl)c1)c1ccncc12 [silmitasertib]
Outline: as §1

[5] = compound: O=C1NC(=O)C(c2cnc3ccccn23)=C1c1cn2c3c(cc(F)cc13)CN(C(=O)N1CCCCC1)CC2
Outline: as §1

[6] = compound: c1cc(OCCN2CCCCC2)cc(-c2n[nH]c3ccc(-c4nnc[nH]4)cc23)c1
Outline: as §1

Measured: log2 fold change

RPS6KB1 (UniProt P23443)
inactive: [1] -0.017 | [2] -0.057 | [3] 0.014 | [4] -0.059 | entinostat 0.041 | vorinostat 0.046 | citarinostat 0.051 | silmitasertib 0.018 | [5] 0.034 | [6] -0.048

RPS9 (UniProt P46781)
inactive: [1] 0.07 | [2] 0.127 | [3] 0.202 | [4] 0.073 | entinostat -0.058 | vorinostat -0.007 | citarinostat -0.058 | silmitasertib 0.007 | [5] 0.076 | [6] -0.152

RPL36A (UniProt P83881)
inactive: [1] 0.084 | [2] 0.102 | [3] 0.394 | [4] 0.077 | entinostat -0.174 | vorinostat 0 | citarinostat -0.175 | silmitasertib 0.14 | [5] 0.343 | [6] -0.267

RPL35A (UniProt P18077)
inactive: [1] 0.253 | [2] 0.131 | [3] 0.465 | [4] 0.283 | entinostat -0.113 | vorinostat -0.016 | citarinostat -0.206 | silmitasertib 0.245 | [5] 0.199 | [6] -0.287

RPL26 (UniProt P61254)
inactive: [1] 0.664 | [2] 0.387 | [3] 0.389 | [4] 0.43 | entinostat 0.05 | vorinostat -0.055 | citarinostat -0.081 | silmitasertib -0.081 | [5] 0.46 | [6] 0.205

RPL32 (UniProt P62910)
inactive: [1] 0.224 | [2] 0.213 | [3] 0.387 | [4] 0.296 | entinostat -0.058 | vorinostat -0.15 | citarinostat -0.162 | silmitasertib 0.177 | [5] 0.261 | [6] -0.298

RPS24 isoform 4 (UniProt P62847)
inactive: [1] 0.092 | [2] 0.121 | [3] 0.196 | [4] 0.076 | entinostat -0.017 | vorinostat 0.044 | citarinostat -0.06 | silmitasertib 0.067 | [5] 0.147 | [6] -0.198

RPL18 (UniProt Q07020)
inactive: [1] 0.208 | [2] 0.186 | [3] 0.565 | [4] 0.352 | entinostat -0.09 | vorinostat -0.012 | citarinostat -0.201 | silmitasertib 0.184 | [5] 0.297 | [6] -0.281

RPL15 (UniProt P61313)
inactive: [1] 0.189 | [2] 0.167 | [3] 0.48 | [4] 0.358 | entinostat -0.143 | vorinostat -0.038 | citarinostat -0.223 | silmitasertib 0.203 | [5] 0.262 | [6] -0.408

RRAGA (UniProt Q7L523)
inactive: [1] -0.002 | [2] 0.138 | [3] -0.209 | [4] 0.232 | entinostat -0.076 | vorinostat -0.014 | citarinostat 0.029 | silmitasertib 0.075 | [5] 0.033 | [6] -0.073

Two successive entries already listed:
RPS24 isoform 4 (UniProt P62847)
inactive: [1] 0.092 | [2] 0.121 | [3] 0.196 | [4] 0.076 | entinostat -0.017 | vorinostat 0.044 | citarinostat -0.06 | silmitasertib 0.067 | [5] 0.147 | [6] -0.198

RPL18 (UniProt Q07020)
inactive: [1] 0.208 | [2] 0.186 | [3] 0.565 | [4] 0.352 | entinostat -0.09 | vorinostat -0.012 | citarinostat -0.201 | silmitasertib 0.184 | [5] 0.297 | [6] -0.281

Continued.

RPS12 (UniProt P25398)
inactive: [1] 0.006 | [2] 0.073 | [3] 0.134 | [4] 0.068 | entinostat -0.032 | vorinostat -0.002 | citarinostat 0.009 | silmitasertib -0.042 | [5] 0.076 | [6] -0.113

RPS27A (UniProt P62979)
inactive: [1] 0.024 | [2] 0.16 | [3] 0.286 | [4] 0.177 | entinostat -0.047 | vorinostat -0.007 | citarinostat -0.211 | silmitasertib 0.05 | [5] 0.064 | [6] -0.06

RPN1 (UniProt P04843)
inactive: [1] -0.026 | [2] -0.043 | [3] -0.068 | [4] -0.053 | entinostat 0.014 | vorinostat 0.032 | citarinostat 0.024 | silmitasertib -0.016 | [5] -0.061 | [6] -0.03

RPS21 (UniProt P63220)
inactive: [1] 0.022 | [2] 0.018 | [3] 0.114 | [4] -0.012 | entinostat -0.061 | vorinostat -0.059 | citarinostat 0.002 | silmitasertib 0.008 | [5] 0.045 | [6] -0.015

RO60 (UniProt P10155)
inactive: [1] -0.049 | [2] -0.014 | [3] -0.01 | [4] -0.02 | entinostat -0.043 | vorinostat -0.053 | citarinostat 0.001 | silmitasertib 0 | [5] 0.028 | [6] -0.019

RPP21 isoform 4 (UniProt Q9H633)
inactive: [1] -0.01 | [2] -0.062 | [3] 0.039 | [4] 0.045 | entinostat 0.011 | vorinostat 0.15 | citarinostat 0.024 | silmitasertib 0.023 | [5] 0.064 | [6] -0.162

RPL34 (UniProt P49207)
inactive: [1] 0.127 | [2] 0.18 | [3] 0.476 | [4] 0.299 | entinostat -0.152 | vorinostat -0.047 | citarinostat -0.223 | silmitasertib 0.144 | [5] 0.264 | [6] -0.384

RP2 (UniProt O75695)
inactive: [1] -0.114 | [2] 0.056 | [3] -0.102 | [4] -0.067 | entinostat 0.005 | vorinostat 0.095 | citarinostat -0.011 | silmitasertib 0.116 | [5] 0.038 | [6] -0.023

RPP30 isoform 2 (UniProt P78346)
inactive: [1] 0.054 | [2] -0.037 | [3] 0.022 | [4] -0.049 | entinostat -0.041 | vorinostat -0.01 | citarinostat -0.02 | silmitasertib 0.052 | [5] 0.102 | [6] -0.112

RPS7 (UniProt P62081)
inactive: [1] 0.089 | [2] 0.092 | [3] 0.328 | [4] 0.125 | entinostat -0.029 | vorinostat -0.011 | citarinostat -0.11 | silmitasertib -0.058 | [5] 0.096 | [6] -0.218

RPS27 (UniProt P42677)
inactive: [1] 0.026 | [2] 0.036 | [3] 0.05 | [4] 0.032 | entinostat -0.053 | vorinostat 0.014 | citarinostat -0.027 | silmitasertib 0.019 | [5] 0.017 | [6] -0.143

RPL13 (UniProt P26373)
inactive: [1] 0.205 | [2] 0.104 | [3] 0.443 | [4] 0.241 | entinostat -0.082 | vorinostat 0 | citarinostat -0.219 | silmitasertib 0.21 | [5] 0.248 | [6] -0.301

RPL12 (UniProt P30050)
inactive: [1] 0.05 | [2] 0.128 | [3] 0.466 | [4] 0.22 | entinostat -0.169 | vorinostat -0.024 | citarinostat -0.196 | silmitasertib 0.193 | [5] 0.216 | [6] -0.286

RNGTT (UniProt O60942)
inactive: [1] -0.002 | [2] -0.076 | [3] -0.086 | [4] -0.084 | entinostat 0.041 | vorinostat -0.082 | citarinostat 0.099 | silmitasertib 0.013 | [5] 0.026 | [6] 0.014

RPP14 (UniProt O95059)
inactive: [1] 0.063 | [2] -0.006 | [3] -0.003 | [4] 0.138 | entinostat -0.065 | vorinostat -0.033 | citarinostat 0.051 | silmitasertib 0.06 | [5] 0.027 | [6] -0.107

RPS19BP1 (UniProt Q86WX3)
inactive: [1] 0.042 | [2] 0.107 | [3] 0.176 | [4] 0.002 | entinostat 0.023 | vorinostat -0.045 | citarinostat -0.027 | silmitasertib 0.168 | [5] 0.133 | [6] -0.087

RNF25 (UniProt Q96BH1)
inactive: [1] -0.014 | [2] 0.012 | [3] -0.063 | [4] -0.035 | entinostat 0.037 | vorinostat -0.076 | citarinostat 0.098 | silmitasertib -0.021 | [5] -0.032 | [6] -0.045

RPS6KA1 isoform 2 (UniProt Q15418)
inactive: [1] -0.131 | [2] -0.242 | [3] -0.205 | [4] -0.096 | entinostat 0.06 | vorinostat 0.109 | citarinostat 0.058 | silmitasertib -0.08 | [5] -0.099 | [6] -0.32

RPL27A (UniProt P46776)
inactive: [1] 0.141 | [2] 0.115 | [3] 0.388 | [4] 0.243 | entinostat -0.065 | vorinostat -0.068 | citarinostat -0.179 | silmitasertib 0.167 | [5] 0.204 | [6] -0.243

RNH1 (UniProt P13489)
inactive: [1] -0.01 | [2] -0.027 | [3] -0.077 | [4] -0.005 | entinostat -0.002 | vorinostat 0.002 | citarinostat 0.036 | silmitasertib 0.009 | [5] -0.075 | [6] -0.005

— the supplement of paper PMC10849652
